Experimental findings from paper PMC12811253 are described below.

Results are given in words; binding and its absence hold for the method and conditions named. In cells and extracts the contact can be indirect. Binding calls can cover weak binding; strength is not graded here. Where a sequence is shown, tags or fusion partners need not be part of it.

This assay addresses T1, Flag-USP13, full-length (UniProt Q92995).
T1 sequence: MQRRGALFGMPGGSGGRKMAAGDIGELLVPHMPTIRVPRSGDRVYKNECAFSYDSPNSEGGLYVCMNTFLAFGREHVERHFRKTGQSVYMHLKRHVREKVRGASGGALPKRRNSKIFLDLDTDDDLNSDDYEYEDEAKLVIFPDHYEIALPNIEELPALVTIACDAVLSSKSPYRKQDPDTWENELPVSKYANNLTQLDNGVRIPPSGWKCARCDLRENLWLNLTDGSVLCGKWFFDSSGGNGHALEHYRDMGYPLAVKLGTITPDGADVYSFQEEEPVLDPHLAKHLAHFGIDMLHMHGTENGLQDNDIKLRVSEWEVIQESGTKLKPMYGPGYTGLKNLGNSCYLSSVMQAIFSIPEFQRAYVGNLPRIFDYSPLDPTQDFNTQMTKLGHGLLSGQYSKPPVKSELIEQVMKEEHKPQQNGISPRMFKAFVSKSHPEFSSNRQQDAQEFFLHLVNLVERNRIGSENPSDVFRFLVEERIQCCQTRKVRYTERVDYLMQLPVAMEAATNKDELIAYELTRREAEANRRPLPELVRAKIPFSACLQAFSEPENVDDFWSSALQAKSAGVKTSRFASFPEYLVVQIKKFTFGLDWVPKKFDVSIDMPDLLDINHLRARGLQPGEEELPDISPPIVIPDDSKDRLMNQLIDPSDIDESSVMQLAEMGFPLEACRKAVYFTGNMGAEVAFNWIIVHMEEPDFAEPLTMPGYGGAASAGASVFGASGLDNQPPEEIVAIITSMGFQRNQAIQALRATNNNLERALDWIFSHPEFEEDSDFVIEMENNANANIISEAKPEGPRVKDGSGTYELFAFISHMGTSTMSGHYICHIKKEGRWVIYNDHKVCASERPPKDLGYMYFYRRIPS
Briefly: co-IP; HEK293 cells co-transfected with 2 μg Flag-USP13 and full-length or mutant Myc-ACLY, 24 h, NP-40 buffer; Flag antibody for co-IP, detection by Myc antibody.

Consider “Myc-ACLY deletion mutant: CoA ligase domain (domain or fragment)”, for which the binding result is on record as “binds”.
